This passage reports binding results from paper PMC7987992.

The chains behind the UniProt entries cited, without tags or fusion partners.
UniProt Q9JHS1: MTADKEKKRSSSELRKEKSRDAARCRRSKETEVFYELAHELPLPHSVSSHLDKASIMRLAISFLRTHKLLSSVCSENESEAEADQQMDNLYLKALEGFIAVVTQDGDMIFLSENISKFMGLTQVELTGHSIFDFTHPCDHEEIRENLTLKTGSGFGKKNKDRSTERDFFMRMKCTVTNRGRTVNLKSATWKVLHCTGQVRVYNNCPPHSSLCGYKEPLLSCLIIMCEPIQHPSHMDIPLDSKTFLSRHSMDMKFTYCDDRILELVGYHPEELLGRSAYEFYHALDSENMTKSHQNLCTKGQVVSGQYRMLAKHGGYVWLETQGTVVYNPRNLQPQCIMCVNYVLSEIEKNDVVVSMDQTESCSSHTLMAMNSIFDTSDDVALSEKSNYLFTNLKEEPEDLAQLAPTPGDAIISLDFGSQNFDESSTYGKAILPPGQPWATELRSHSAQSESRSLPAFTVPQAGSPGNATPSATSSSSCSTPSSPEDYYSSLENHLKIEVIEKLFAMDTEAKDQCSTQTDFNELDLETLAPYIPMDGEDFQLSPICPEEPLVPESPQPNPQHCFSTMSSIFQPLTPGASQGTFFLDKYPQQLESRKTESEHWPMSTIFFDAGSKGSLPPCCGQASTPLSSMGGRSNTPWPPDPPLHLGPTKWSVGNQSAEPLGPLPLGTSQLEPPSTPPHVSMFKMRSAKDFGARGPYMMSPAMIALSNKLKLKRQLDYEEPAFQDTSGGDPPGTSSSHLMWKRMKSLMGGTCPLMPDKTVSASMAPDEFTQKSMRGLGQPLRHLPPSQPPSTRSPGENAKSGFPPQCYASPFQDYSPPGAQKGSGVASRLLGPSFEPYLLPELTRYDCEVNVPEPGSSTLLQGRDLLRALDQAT

The target of this assay is hypoxia-inducible factor (HIF)-2α (rat (endogenous in NRK-49F)) (UniProt Q9JHS1). The experiment in a line: co-IP; NRK-49F cells treated with NMN or sirtinol for 24 h; total cell lysates immunoprecipitated with an anti-HIF-2α antibody (Pierce kit); immune complexes analysed by western blot. (Immunoblotting shows a protein as a band on a membrane.)

Results are given in words; binding and its absence hold for the method and conditions named. In cells and extracts the contact can be indirect. Some entries that bind do so weakly or less than the wild type.

B1: Sirtuin 1 (SIRT1) (enzyme, UniProt A0A0G2JZ79 1-741)
chain: MADEAALALQAGGSPSAAAAMEAASQPADEPLRKRPRRDGPGLGRSPGEPSAAAAAAAAAAGCEAASAAAPAALWREAAGAAAASAEREAPATAAAGDGDNGPGLRREPRAADDFDDDEGEEEDEAAAAAAAAIGYRDNLLLADEIITNGFHSCESDDDDRASHASSSDWTPRPRIGPYTFVQQHLMIGTDPRTILKDLLPETIPPPELDDMTLWQIVINILSEPPKRKKRKDINTIEDAVKLLQECKKIIVLTGAGVSVSCGIPDFRSRDGIYARLAVDFPDLPDPQAMFDIEYFRKDPRPFFKFAKEIYPGQFQPSLCHKFIALSDKEGKLLRNYTQNIDTLEQVAGIQRIIQCHGSFATASCLICKYKVDCEAVRGDIFNQVVPRCPRCPADEPLAIMKPEIVFFGENLPEQFHRAMKYDKDEVDLLIVIGSSLKVRPVALIPSSIPHEVPQILINREPLPHLHFDVELLGDCDVIINELCHRLGGEYAKLCCNPVKLSEITEKPPRTQKELVHLSELPPTPLHISEDSSSPERTVPQDSSVIATLVDQTIKNKVDDLEVSEPKSCVEEKSQEVQTYRNVESINVENPDFKAVGSSTGDKNERTSVAETVRKCWPNRLAKEQISKRLDGNQYLFVPPNRYIFHGAEVYSDSEDDALSSSSCGSNSDSGTCQSPSLEEPLEDESEIEEFYNGLEDDADRPECAGGSGADGGDQEAVNEAIAMKQELTDVNCTPDKSEHY
As to B1, the binding result was “binds”.
